{
  "source": "patent US12324860B2",
  "about": "“Methods of treating central nervous system disorders via administration of nanoparticles of an mTOR inhibitor and an albumin” (Abraxis BioScience, LLC, priority 2018, dated 2025)",
  "origin": "cited, not measured here",
  "key": {"mTORC1 in HUVEC cells": {"molecular_target": "T1, mTORC1 in HUVEC cells (Homo sapiens, UniProt P42345)", "T1 construct": "endogenous in cells; host or cells: HUVEC"}, "mTORC1 in HEK293 cells": {"molecular_target": "T2, mTORC1 in HEK293 cells (Homo sapiens, UniProt P42345)", "T2 construct": "endogenous in cells; host or cells: HEK293"}},
  "note": "At least one structure is not confirmed: it was looked up by name or label, or the drawing left a doubt.",
  "data": [
    {"smiles": "COC(=O)Nc1ccc(-c2nc(N3CCOCC3)c3cnn(C4CCN(C(=O)OC)CC4)c3n2)cc1", "note": "[WYE-354]", "values": [
      {"measurement": "concentrations at which mTORC1 is inhibited", "setting": "mTORC1 in HUVEC cells", "value": "10 nM-1 μM"},
      {"measurement": "concentrations at which mTORC1 is inhibited", "setting": "mTORC1 in HEK293 cells", "value": "0.2 μM-5 μM"}
    ]}
  ]
}
